Data taken from PubChem BioAssay AID2685 (National Center for Advancing Translational Sciences (NCATS), 2010).
The list shows a part of the results. These are further read-outs of the screen, such as a control signal, another cell line or another target. No call is given for them. Compounds called inactive in the main read-out are mostly missing here. Potencies come from curve fits of mixed quality, noted in brackets.

Experiment: qHTS Assay for Lipid Storage Modulators in Drosophila S3 Cells;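 on cell number change: cells counted by Cell Tracker Red CMTPX staining in the red channel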
Conditions: BODIPY lipid droplet fluorescence, 18-24 h; for cell number change: measured here: cell count max response, cells fed with added oleic acid
Procedure, shortened: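 Drosophila S3 cells got compounds at several concentrations plus oleic acid (400 uM solution). Laser-scanning cytometry with 488 nm excitation read lipid droplets at 500-530 nm and cells at 575-640 nm. Percent activity was relative to 20 uM Triacsin C.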

[1] = measured here: lipid fluorescence (Fed channel) AC50, cells fed with added oleic acid
[2] = measured here: cell number channel AC50, cells fed with added oleic acid

Row | Compound | cell number change [%] | AC50 [1] | AC50 [2]
1 | Cc1ccc(NC(=O)CC2S/C(=N/c3nccs3)N(C)C2=O)c(C)c1 (configuration not stated) | 3.73 | – | –
2 | CCCCOc1ccc(CC(=O)NCC(=O)O)cc1 | -6.67 | – | –
3 | CCN(CC)S(=O)(=O)c1ccc(-c2nnc(SC)o2)cc1 | 0.762 | 6.51 µM [falling, single point] | –
4 | COc1ccc(OCC(=O)Nc2cc(C)c(Cl)cc2OC)c([N+](=O)[O-])c1 | -21.1 | 0.731 µM [rising, full curve, poor fit] | –
5 | Fc1cccc(CSc2nc3ncc(Cl)cc3[nH]2)c1 | 16.1 | 0.116 µM [rising, full curve, poor fit] | 0.326 µM [rising, full curve, poor fit]
6 | Cc1cc(C)n(-c2nc(-c3ccc(Cl)cc3)cs2)n1 | 8.2 | 1.46 µM [rising, partial curve, poor fit] | 0.231 µM [rising, full curve]
7 | O=C(O)CSc1nnc2c(n1)[nH]c1ccccc12 | -0.136 | 1.46 µM [falling, single point] | –
8 | COc1ccc(-n2nc3c(N4CCC(C(=O)NCCc5ccccc5C)CC4)nnc(C)c3c2C)cc1 | 9.73 | 11.6 µM [rising, partial curve] | –
9 | COc1cc(C(=O)NC2CCCc3c2cnn3-c2ccccc2F)cc(OC)c1OC (configuration not stated) | – | 23.1 µM [falling, partial curve] | –
10 | Cc1ccc(-c2cc(C(=O)N3N=C(C(F)F)CC3(O)C(F)F)c3ccccc3n2)cc1C (configuration not stated) | -65.4 | 16.4 µM [falling, partial curve] | 18.4 µM [falling, partial curve]
11 | O=C(O)CCNc1nc(-c2ccccc2)nc2ccccc12 | 34.8 | 29.1 µM [falling, single point] | 2.31 µM [rising, single point]
12 | CN(C)C(CNC(=O)c1ccc(C(=O)c2ccccc2)cc1)c1ccccc1 (configuration not stated) | 18.9 | 8.2 µM [rising, partial curve] | –
13 | CCOc1ccc(N2CC(C(=O)Nc3ccc(S(=O)(=O)N4CCOCC4)cc3)CC2=O)cc1 (configuration not stated) | 41.5 | 6.51 µM [rising, single point] | 29.1 µM [rising, single point]
14 | COc1ccc(CN(Cc2ccccn2)S(=O)(=O)c2ccc(-n3cnnn3)c(OC)c2)cc1 | 47.5 | 11.6 µM [rising, partial curve] | 29.1 µM [rising, single point]
15 | CC1Sc2ccc(S(=O)(=O)CCC(=O)NC(C)c3ccccc3)cc2NC1=O (configuration not stated) | -3.36 | 2.31 µM [rising, partial curve] | –
16 | COC(=O)c1[nH]c2cccc(OC)c2c1NC(=O)CCN1CCC(C)CC1 | -20.8 | 0.411 µM [rising, full curve, poor fit] | –
17 | COc1ccc(COCC(O)CN2CCOCC2)cc1OC (configuration not stated) | 32.3 | – | –
18 | CN(CCCNC(=O)CCC(=O)N1CCOc2ccccc21)Cc1ccccc1 | 9.22 | – | –

Reformatted tab-delimited: 2 of the compounds above.
Row	Compound	cell number change [%]	AC50 [1]	AC50 [2]
2	CCCCOc1ccc(CC(=O)NCC(=O)O)cc1	-6.67	–	–
18	CN(CCCNC(=O)CCC(=O)N1CCOc2ccccc21)Cc1ccccc1	9.22	–	–

(listing goes on)

Row | Compound | cell number change [%] | AC50 [1] | AC50 [2]
19 | CC(C)(C)c1ccc(NC(=O)COC(=O)c2ccc3ncsc3c2)cc1 | 0.987 | 6.51 µM [falling, single point] | –
20 | COc1cccc(CNC(=O)CN(c2cc(C)cc(C)c2)S(=O)(=O)c2c(C)noc2C)c1 | 15.4 | 1.64 µM [rising, partial curve, poor fit] | –
21 | CCN1CCN(c2ccc(S(=O)(=O)N3CCCCC3)cc2NC(=O)CC(NC(C)=O)c2ccccc2)CC1 (configuration not stated) | 2.94 | – | –
22 | Cc1cc(C(=O)O)ccc1-c1ccc(/C=N/n2cnnc2)o1 | 21.3 | 13 µM [rising, partial curve] | –
23 | COc1ccc(/C(O)=C2/C(=O)C(=O)N(c3ccccn3)C2c2ccc(OC)cc2)cc1 (configuration not stated) | -16.7 | 29.1 µM [falling, single point] | –
24 | COC(=O)CCc1c(C)c(C(=O)c2ccc(F)cc2)c2ccccn12 | – | 0.103 µM [rising, partial curve, poor fit] | 0.116 µM [rising, full curve, poor fit]
25 | CC(=O)N1CCc2cc(S(=O)(=O)NC(CC(C)C)C(=O)N3CCCC3)ccc21 (configuration not stated) | -7.63 | – | –
26 | CCOC(=O)C(C(=O)OCC)C(C)(C)/C(C)=N\Nc1ccc([N+](=O)[O-])cc1[N+](=O)[O-] | -44.4 | 18.4 µM [falling, partial curve] | 32.6 µM [falling, single point]
27 | Cn1c(CNC(=O)c2ccc3c(c2)OCO3)nnc1SCC(=O)Nc1ccccc1Cl | 19.2 | 9.2 µM [rising, partial curve, poor fit] | –
28 | COC(=O)c1scc2c(Oc3ccccc3)cc(C(F)(F)F)nc12 | 30.4 | 16.4 µM [rising, single point] | 18.4 µM [rising, single point]
29 | COc1ccc2c(c1)[nH]c1c(=O)n(Cc3ccccn3)cnc12 | -33.5 | 0.651 µM [rising, full curve] | 25.9 µM [falling, partial curve, poor fit]
30 | COc1ccc(NC(=O)CS(=O)CC(=O)Nc2cccnc2)cc1 (configuration not stated) | 17.4 | 6.51 µM [falling, single point] | –
31 | O=C(O[C@H]1[C@H](Cc2ccccc2)NS(=O)(=O)[C@H]2C[C@@H]3C=C[C@]12O3)c1ccc([N+](=O)[O-])cc1 | 1.08 | 2.59 µM [rising, full curve] | –
32 | Cc1ccc(N/C=C(/C#N)c2ccsc2)cc1 | -8.56 | 0.651 µM [rising, single point] | 0.00461 µM [falling, full curve, poor fit]
33 | C/C(CC(=O)Nc1cccc(F)c1)=N\NC(=O)c1ccncc1 | -7.65 | – | –
34 | O=C(Cc1cccs1)Nc1ccccc1C(=O)O | – | – | 3.26 µM [falling, partial curve, poor fit]
35 | CCN(CC(=O)Nc1ccc(N2CCOCC2)cc1)C(=O)c1ccc(C#N)cc1 | -22 | – | –
36 | CCc1ccc2oc(C(=O)NCc3ccncc3)c(C)c2c1 | -26.6 | 29.1 µM [falling, single point] | –
